Results from PubChem BioAssay AID662 (National Center for Advancing Translational Sciences (NCATS), 2007).
Some of the results follow. Further columns of the screen follow, without active or inactive calls. The list favours compounds with an active or inconclusive main result. The note in brackets gives the kind of curve behind each potency; many fits are weak.

Test: Cell signaling CRE-BLA (Fsk stim)
Conditions: CHO CRE-bla reporter (cAMP response element driving beta-lactamase), forskolin EC10, beta-lactamase ratio; measured here: 460 nm blue channel
Procedure, shortened: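 Using CellSensor CRE-bla CHO cells in Opti-MEM with 0.5% dialyzed FBS, compounds were titrated with EC10 NKH 477 for 3 h at 37 °C. CCF4 ratio (460/530 nm) gave %Activity; AC50 derived.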

**Q.** With `Cc1noc(C)c1C(=O)N1CCN(CCc2ccccc2)CC1` as the compound, how does the AC50 read?
**A.** 25.1 µM [rising, single point]

**Q.** For `CS(=O)(=O)Nc1cccc(-c2cc(NCc3cccs3)ncn2)c1`, which AC50 is on record?
**A.** 10 µM [rising, partial curve]

**Q.** Which AC50 does the source give for `CCOC(=O)c1ccc(N2C(=O)C3C(C2=O)C(C(=O)c2ccc(Cl)cc2)N2CCCC32)cc1` (configuration not stated) here?
**A.** 3.98 µM [falling, single point]

**Q.** Which AC50 does the source give for `CSc1ccccc1NC(=O)COc1ccc(S(=O)(=O)N2CCCC2)cc1` here?
**A.** 25.1 µM [rising, single point]

**Q.** Which AC50 does the source give for `CCOC(=O)c1c(C)n(C)c2ccc(OCC(O)Cn3c(C)nc4ccccc43)cc12` (configuration not stated) here?
**A.** 3.16 µM [rising, partial curve]

**Q.** For `Cc1cccc(CNc2ncnc3ccc(-c4ccc(C(=O)N(C)C)cc4)cc23)c1`, which AC50 is on record?
**A.** 10 µM [rising, single point]

**Q.** Which AC50 does the source give for `O=C(CN1CCN(c2ccccn2)CC1)NCCc1ccccc1` here?
**A.** 5.01 µM [falling, single point]

**Q.** For `CC(C)CCn1c(SCCc2ccccc2)nc2c1c(=O)[nH]c(=O)n2C`, which AC50 is on record?
**A.** 5.01 µM [rising, partial curve]

**Q.** Which AC50 does the source give for `Cc1nc2ccccc2c2nc3ccccc3n12` here?
**A.** 5.01 µM [rising, partial curve]

**Q.** Which AC50 does the source give for `Cc1cccc(CNc2ncncc2-c2ccccc2Cl)c1` here?
**A.** 15.8 µM [rising, single point]

**Q.** Which AC50 does the source give for `Cc1noc(C)c1-c1nc(NCc2cccnc2)c2ccccc2n1` here?
**A.** 12.6 µM [rising, partial curve]

**Q.** For `CCNc1ccc2c(Cl)cc(=O)oc2c1`, which AC50 is on record?
**A.** 10 µM [rising, partial curve]

**Q.** For `CC(C(=O)Oc1ccc2c(c1)OCO2)N1C(=O)c2ccccc2C1=O` (configuration not stated), which AC50 is on record?
**A.** 0.0251 µM [falling, full curve, poor fit]

**Q.** Which AC50 does the source give for `COc1cc2oc(=O)c(Br)c(C)c2c(OC)c1OC` here?
**A.** 10 µM [rising, partial curve]

**Q.** For `Oc1c(C(c2ccccc2)N2CCCCC2)sc2ncnn12` (configuration not stated), which AC50 is on record?
**A.** 7.94 µM [falling, partial curve]

**Q.** With `COC(=O)c1ccccc1NC(=O)CC#N` as the compound, how does the AC50 read?
**A.** 0.158 µM [falling, partial curve]

**Q.** With `CCCCn1c(=O)c2ccccc2c2ccccc2c1=O` as the compound, how does the AC50 read?
**A.** 12.6 µM [rising, single point]

**Q.** For `Cn1c(=O)c2c(SCC(=O)c3ccccc3)nc(C3CC3)nc2n(C)c1=O`, which AC50 is on record?
**A.** 2.51 µM [rising, full curve, poor fit]

**Q.** With `COc1ccc(Cn2c(=O)n(Cc3ccco3)c(=N)c3c4c(sc32)COC(C)(C)C4)cc1` as the compound, how does the AC50 read?
**A.** 12.6 µM [rising, partial curve]

**Q.** For `CC(=O)Oc1cc2oc(=O)cc(C)c2cc1OC(C)=O`, which AC50 is on record?
**A.** 12.6 µM [rising, partial curve]

**Q.** For `O=C(NCCC1=CCCCC1)c1ccc2c(=O)n3c(nc2c1)CCCCC3`, which AC50 is on record?
**A.** 10 µM [rising, partial curve]

**Q.** With `CCCCCSc1nnc(-c2cc(Br)ccc2N)c(=O)[nH]1` as the compound, how does the AC50 read?
**A.** 1 µM [falling, full curve]

**Q.** With `CC(C)OC(=O)CN1C(=O)C(C)(C)Oc2ccc(C(=O)NC(C)(C)C)cc21` as the compound, how does the AC50 read?
**A.** 25.1 µM [falling, single point]

**Q.** With `COC(=O)[C@@]1(Cc2ccc(OC)cc2)[C@H]2c3cc(C(=O)N(C)C)n(Cc4ccc(Cl)c(C(F)(F)F)c4)c3C[C@H]2CN1C(=O)c1ccccc1` as the compound, how does the AC50 read?
**A.** 0.631 µM [rising, full curve, poor fit]

**Q.** For `COc1cccc(-c2nc(CS(=O)(=O)CC(=O)Nc3cccc(C)c3C)c(C)o2)c1`, which AC50 is on record?
**A.** 10 µM [rising, single point]

**Q.** With `COc1ccc(CN(CCN2CCOCC2)C(=O)c2c(F)cccc2F)cc1OC` as the compound, how does the AC50 read?
**A.** 3.16 µM [falling, single point]

**Q.** Which AC50 does the source give for `CCn1ncc(Cl)c1C(=O)Nc1cc(Cl)ccc1Cl` here?
**A.** 15.8 µM [rising, single point]

**Q.** Which AC50 does the source give for `CO[C@@H]1CC[C@@]2(C)[C@@H](CC[C@@]3(C)[C@H]2CC=C2[C@H]4CC(C)(C)[C@H](O)[C@@H](OC(C)=O)[C@]4(CO)[C@H](O)C[C@]23C)[C@@]1(C)CO` (tested in a mixture with another compound) here?
**A.** 12.6 µM [falling, single point]

**Q.** For `Cc1ccc(-c2nnc3sc(CCc4ccccc4)nn23)cc1`, which AC50 is on record?
**A.** 10 µM [rising, single point]

**Q.** For `CCCCCCn1c(CN2CCCCC2CC)nc2c1c(=O)n(C)c(=O)n2C` (configuration not stated), which AC50 is on record?
**A.** 7.94 µM [rising, partial curve]

**Q.** Which AC50 does the source give for `COC(=O)Cn1cnc2sc(C)c(S(=O)(=O)N3CCN(c4ccccc4OC)CC3)c2c1=O` here?
**A.** 0.316 µM [rising, full curve, poor fit]

**Q.** With `Cc1cc2cc3c(cc2nc1SCC(=O)N1CCN(C(=O)c2ccco2)CC1)OCO3` as the compound, how does the AC50 read?
**A.** 25.1 µM [rising, single point]

**Q.** For `Cc1csc(NC(=O)C2CCCO2)n1` (configuration not stated), which AC50 is on record?
**A.** 0.00631 µM [falling, full curve]

**Q.** With `COc1ccc(-c2nc3cnc(Nc4cccc(OC)c4)nc3n(Cc3cccs3)c2=O)cc1` as the compound, how does the AC50 read?
**A.** 1 µM [rising, full curve]

**Q.** With `CNC(=O)N(C1=NCC(C)(C)S1)c1ccc(F)c(Cl)c1` as the compound, how does the AC50 read?
**A.** 1 µM [rising, partial curve]

**Q.** Which AC50 does the source give for `Cc1nn(-c2ccccc2)c2c1C1(C(=O)N(C)c3ccccc31)N(c1ccccc1)C(=O)N2` (configuration not stated) here?
**A.** 15.8 µM [falling, partial curve]

**Q.** Which AC50 does the source give for `c1ccc2c(c1)nnn1c3ccccc3nc21` here?
**A.** 12.6 µM [rising, partial curve]

**Q.** Which AC50 does the source give for `CCOc1cc(S(=O)(=O)N(CC)CC)ccc1Br` here?
**A.** 6.31 µM [rising, partial curve]

**Q.** With `COc1ccc(OC)c(C2=NOC(C(=O)Nc3cc(C)nn3-c3ccccc3)C2)c1` (configuration not stated) as the compound, how does the AC50 read?
**A.** 5.01 µM [rising, partial curve]

**Q.** For `Cc1cccc(-c2nsc(SCC(=O)N3CCCC3)n2)c1`, which AC50 is on record?
**A.** 0.316 µM [falling, partial curve, poor fit]

**Q.** Which AC50 does the source give for `Cc1nc(SCN2C(=O)c3ccccc3C2=O)n[nH]1` here?
**A.** 1 µM [falling, partial curve]

**Q.** With `Clc1ccccc1-c1nccc(NCc2cccs2)n1` as the compound, how does the AC50 read?
**A.** 3.16 µM [rising, single point]
